Patent publication US20240408057A1, “Composition for preventing or treating cachexia and muscle loss” (METAFINES.CO.LTD., priority 2023, published 2024)
At least one compound was matched to its structure with a doubt left.

What was measured:
Type in all cases: cell-based, mouse
Details in all cases: 1 μM, 72 hours
PDK-4 = PDK-4 expression (Western blot) in C2C12 myotubes treated with inducers (no CCM)
Method: (§1) A C2C12 cell line was dispensed into a 6-well plate at 4.0×10^5 cells/well, and then cultured in DMEM medium containing 10% fetal bovine serum (FBS) under 37° C. and 5% CO2 conditions for one day. When the cell density reached about 80%, the medium was replaced with a differentiation medium and the cells were cultured for additional 3 days to set up a normal control group, and simultaneously a test group was set up by treatment with WY-14643, which is a PDK-4 activator, at a concentration of 50 μM. […] Scale bars inserted in FIGS. 13A and 13B represent a horizontal length of 50 μm. Referring to FIG. 13, it was confirmed that the diameter of myotube cells decreased when treated with the PDK-4 activator (i.e., WY-14643), thereby inducing the cells to a state similar to that of cancer cachexia.
Subsequently, the expression of PDK-4, MuRF1, Atrogin1, MyHC, and Myogenin in the normal control group (UCM) and the activator-treated group (WY-14643) were analyzed by Western blot, and the results are shown in FIGS. 14A and 14B.
A C2C12 cell line was dispensed into a 6-well plate at 4.0×10^5 cells/well, and then cultured in DMEM medium containing 10% fetal bovine serum (FBS) under 37° C. and 5% CO2 conditions for one day. When the cell density reached about 80%, the medium was replaced with a differentiation medium and the cells were cultured for additional 3 days. […]

Calpain 3 = Calpain 3 expression (Western blot) in C2C12 myotubes treated with inducers (no CCM)
GDF-15 = GDF-15 expression (Western blot) in C2C12 myotubes treated with dexamethasone
MuRF1 = MuRF1 expression (Western blot) in C2C12 myotubes treated with inducers (no CCM)
Method: as §1
(§2) Subsequently, the expression of PDK-4, MuRF1, Atrogin1, MyHC, and Myogenin in the normal control group (UCM) and the activator-treated group (WY-14643) were analyzed by Western blot, and the results are shown in FIGS. 14A and 14B. […]
(§3) Subsequently, the expression of Calpain 3, MuRF1, Atrogin1, MyHC, and Myogenin in the normal control group (UCM), vehicle control group (scrambled siRNA), and Calpain 3 siRNA treated group was analyzed by Western blot, and the results are shown in FIGS. 16A and 16B. […]

Atrogin1 = Atrogin1 expression (Western blot) in C2C12 myotubes treated with inducers (no CCM)
Method: as §1, §2, §3

MyHC = MyHC expression (Western blot) in C2C12 myotubes treated with inducers (no CCM)
Method: as §1, §2, §3

Myogenin = Myogenin expression (Western blot) in C2C12 myotubes treated with inducers (no CCM)
Method: as §1, §2, §3

C[C@@H]1C[C@H]2[C@@H]3CCC4=CC(=O)C=C[C@]4(C)[C@@]3(F)[C@@H](O)C[C@]2(C)[C@@]1(O)C(=O)CO [dexamethasone]
expression of PDK4 (PDK-4): increase in the expression
expression of Calpain 3 (Calpain 3): decrease in the expression
expression of GDF-15 (GDF-15): increase in the expression
expression level of MuRF1 (MuRF1): increased
expression level of Atrogin1 (Atrogin1): increased
expression level of MyHC (MyHC): decreased
expression level of Myogenin (Myogenin): decreased
